According to patent US10829530B2, “Analogues of VDAC1-derived peptides” (B. G. NEGEV TECHNOLOGIES AND APPLICATIONS LTD., AT …, priority 2015, dated 2020):
Part of at least one peptide drawing is inferred or uncertain, most often the ends.

Tests used:
[1] = test system: U-87MG; assay type: cell-based; conditions: 15 μM peptide, 6 h
[2] = test system: U-87MG cells; test: Intracranial-orthotopic U-87MG xenograft in nude mice (MRI tumor volume, survival); assay type: in vivo, mouse; conditions: for decrease in orthotopic xenograft tumor volume: 10 mg/Kg i.v.
[3] = test system: A549; test: Peptide storage stability, read out as death of A549 cells (PI staining, FACS); assay type: cell-based; conditions: 0.5 mM in 5% DMSO, all temperatures examined, including 4° C. and room temperature
Method: The peptide (0.5 mM in 5% DMSO) was incubated at −20° C., 4° C. or 25° C. for the indicated time, and then assayed (at 10 μM) for its capability to induce death of A549 using PI staining and FACS analysis. In untreated cells, cell death was 3%, while with the peptide, cell death was over 90% (n=2).
The assay conditions were as described in FIG. 8A above.

[4] = test system: MDCK; test: Cell death induction in non-cancerous MDCK cells; assay type: cell-based, canine; conditions: 15 μM peptide, 6 h
[5] = test system: BNL1ME cell line; assay type: cell-based; conditions: serum-free medium, 6 h
Method: Cells in suspension were counted (2×10^6/ml) and treated on the same day whereas adherent cells were counted and seeded (1.5−2×10^5/ml) in 12 wells plate 16-24 h before treatment. Cells in suspension or adherent cells were incubated in serum-free medium (200 μl or 500 μl, respectively) with various concentrations of peptide of interest (for 90 min or 6 h, respectively) at 37° C. in the presence of 5% CO2. Cells were collected (adherent cells by trypsinization), centrifuged (1500×g, 5 min), washed once with PBS and analyzed for cell death using propidium iodide (PI) staining and flow cytometer (Beckton-Dickinson, San Jose, Calif.) and BD CellQuest Pro software.
PI solution was diluted with PBS to a final concentration of 0.5 mg/ml. 2.5 μl of the PI solution were added to each FACS tube, and the tubes were vortexed gently to homogenize the cell suspension. Cell viability was measured in the FACS channel FL3 and data were analyzed using CellQuest Pro software.
Cells were incubated in a serum-free medium with each peptide type for 6 h at 37° C. in the presence of 5% CO2.

[6] = test system: DEN-induced hepatocellular carcinoma (HCC); test: DEN-induced hepatocellular carcinoma in mice; assay type: in vivo, mouse
[7] = test system: PANC-2 cells; test: Acridine orange, ethidium bromide staining of PANC-2 cells (apoptosis); assay type: cell-based, mouse; conditions: 2 μM peptide
[8] = test system: HFD-32-fed mice; test: NASH post-steatosis induced by STZ and HFD-32 in mice (treatment week 9 to 12); assay type: in vivo, mouse
[9] = test system: HFD-32-fed mice; test: Steatosis induced by STZ and HFD-32 in mice (treatment week 7 to 9); assay type: in vivo, mouse

## CC[C@H](C)[C@H](NC(=O)[C@H](Cc1ccc(O)cc1)NC(=O)[C@@H]1CCCN1C(=O)[C@H](CCCNC(=N)N)NC(=O)[C@H](Cc1c[nH]cn1)NC(=O)[C@@H](CO)NC(=O)[C@@H](Cc1c[nH]c2ccccc12)NC(=O)[C@H](NC(=O)[C@@H](Cc1c[nH]c2ccccc12)NC(=O)[C@@H](CCC(=O)O)NC(=O)[C@@H](CCCCN)NC(=O)[C@@H](CCCCN)NC(=O)[C@@H](CC(C)C)NC(=O)[C@@H](CCC(=O)O)NC(=O)[C@H](NC(=O)[C@@H](C)NC(=O)[C@H](NC(=O)[C@@H](CC(N)=O)NC(=O)[C@@H](CC(C)C)NC(=O)[C@@H](C)NC(=O)[C@@H](Cc1c[nH]c2ccccc12)NC(=O)[C@H](NC(=O)[C@@H](C)NC(=O)CNC(=O)[C@@H](CC(N)=O)NC(=O)[C@@H](CO)NC(=O)[C@@H](CC(N)=O)NC(=O)[C@@H](CCCCN)NC(=O)[C@@H](Cc1c[nH]c2ccccc12)NC(=O)[C@H](NC(=O)[C@@H](Cc1c[nH]c2ccccc12)NC(=O)[C@H](N)CCCCN)[C@H](C)O)[C@H](C)O)C(C)C)[C@H](C)O)[C@H](C)O)C(=O)N[C@@H](C)C(=O)N[C@@H](Cc1c[nH]cn1)C(=O)O [Retro-Tf-D-LP4, D-Lys-D-Trp-D-Thr-D-Trp-D-Lys-D-Asn-D-Ser-D-Asn-D-Gly-D-Ala-D-Thr-D-Trp-D-Ala-D-Leu-D-Asn-D-Val-D-Ala-D-Thr-D-Glu-D-Leu-D-Lys-D-Lys-D-Glu-D-Trp-D-Thr-D-Trp-D-ser-His-Arg-Pro-Tyr-Ile-Ala-His]
[1]
  cell death: about 80%
[2]; 25 days
  decrease in orthotopic xenograft tumor volume: 80%
[2]; 32 days
  decrease in orthotopic xenograft tumor volume: 90%
[2]; i.v., free peptide, FIG. 11
  lower tumor volume (summary statement): up to 90%
[3]
  activity kept after storage: full activity
[4]
  cell death: about 30%
[5]
  maximal cell death induction: 95%
[6]; 18 mg/Kg
  liver pathologies (steatosis, ballooning degradation, inflammation, fibrosis), H&E and Sirius red: No such liver pathologies were observed
[6]; 18 mg/Kg i.v.
  liver size and weight versus control group: control group livers were big in size and weight comparing to livers from mice treated
  tumor development: inhibited tumor development
[6]; 18 mg/Kg i.v., up to 43 weeks
  tumor nodules in liver (MRI, macroscopic): no tumor nodules were observed
[7]
  apoptosis (acridine orange, ethidium bromide staining): induces apoptosis
[8]; NASH stage, week 12, 10 mg/kg
  tumor nodules in liver sections (H&E): not observed
[8]; NASH, 10 mg/kg
  ballooning and inflammation (H&E): almost no signs of ballooning and inflammation
  collagen staining, fibrosis marker (Masson trichrome and Sirius red): almost no collagen staining
  fat droplet accumulations with macro- and micro-vesicles (H&E): highly decreased
[8]; NASH, 10 mg/kg, last 3 weeks, HFD-32 alone about 1.8 fold
  increase of liver weight in comparison to chow-fed (ND) mice: 1.4 fold
[8]; NASH, HFD-32-fed mice
  less epididymal and mesenteric fat than untreated HFD-32 mice: about 40%
[9]; 10 mg/kg, last 2 weeks, HFD-32 alone about 30% increase over chow
  HFD-32-induced increase of liver weight: attenuated
[9]; HFD-32 mice, chow about 150 mg/dL, HFD-32 up to 450 mg/dL
  blood glucose level: comparable to those of mice fed with regular food
[9]; steatosis, 10 mg/kg i.v.
  Oil-red staining of fat droplets in liver sections: no such staining was observed
  ballooned hepatocytes (H&E): highly reduced ballooning cells
  fat droplets in liver (H&E): clear reduction both in the size and the number of fat droplets
  liver fibrosis (Sirius red): highly decreased
  liver inflammation (H&E): highly reduced inflammation
